{"source": "patent US20190315823A1", "about": "“SMALL CATIONIC ANTI-BIOFILM AND IDR PEPTIDES” (priority 2013, published 2019)", "test_system": "Pseudomonas (PA14 Lux)", "test": "Pseudomonas aeruginosa surface abrasion biofilm model", "type": "in vivo, CD1 Mice", "details": "200 μg/mouse at time zero; 24 and 48 hours", "note": "Part of at least one peptide drawing is inferred or uncertain, most often the ends.", "data": [{"smiles": "CC[C@@H](C)[C@@H](NC(=O)[C@@H](C)NC(=O)[C@@H](CCCNC(=N)N)NC(=O)[C@@H](Cc1c[nH]c2ccccc12)NC(=O)[C@@H](CCC(N)=O)NC(=O)[C@H](N)C(C)C)C(=O)N[C@H](CCCNC(=N)N)C(=O)N[C@@H](C(=O)N[C@H](CCCNC(=N)N)C(=O)N[C@@H](C(=O)N[C@@H](C(=O)N[C@H](CCCNC(=N)N)C(N)=O)[C@H](C)CC)C(C)C)C(C)C", "note": "[DJK5]", "values": [{"measurement": "luminescent bacteria in abrasion", "value": "no bacteria"}]}]}
